This note sets out measurements from article PMC8928434, “Production of Putrescine and Cadaverine by Paucilactobacillus wasatchensis” (Frontiers in Microbiology, 2022).

By Km is commonly meant the concentration of substrate that gives half-maximal velocity.

This assay relates to Odc2_C19 (Odc2). To be noted: 50 mM phosphate pH 5.5, 50 μM pyridoxal 5'-phosphate, 37°C; substrate 1-50 mM. The text has this:
HPLC of o-phthalaldehyde-derivatized amine product (decarboxylation), Michaelis-Menten fit on Odc2_C19 (Odc2)

With `NCCC[C@H](N)C(=O)O` [L-ornithine], the Km was determined as 4.9 ± 0.9 mM.
